Values quoted from earlier work in patent EP0268925B1, “Safened pesticidal resin compositions for controlling soil borne pests and process for the preparation thereof” (priority 1986, dated 1988).
The name of at least one read-out is uncertain.

Tests used:
rabbits = conditions: technical material
rats = conditions: technical material

| Structure (SMILES) | acute dermal toxicities on rabbits (rabbits) | acute dermal toxicities in rats (rats) |
| --- | --- | --- |
| CCOP(=S)(OCC)SCSCC [phorate, O,O-diethyl-S-(ethylthiomethyl)phosphorodithioate] | 3.1-6.4 mg technical/kg | 2.5-6.2 mg technical/kg |
| CCOP(=S)(OCC)SCSC(C)(C)C [terbufos, O,O-diethyl S-[[(1,1-dimethylethyl)thio]methyl]phosphorodithioate] | 1.0 mg technical/kg | 7.4 mg technical/kg |
